Measured values as given in paper PMC5644667.
These are yes or no findings as the source states them, for the method shown. In cells and extracts the contact can be indirect. Some entries that bind do so weakly or less than the wild type. Tags and fused reporters may be left off the sequences shown.

By UniProt entry, the sequences of proteins in these tests, tags left out.
UniProt Q8VSC3: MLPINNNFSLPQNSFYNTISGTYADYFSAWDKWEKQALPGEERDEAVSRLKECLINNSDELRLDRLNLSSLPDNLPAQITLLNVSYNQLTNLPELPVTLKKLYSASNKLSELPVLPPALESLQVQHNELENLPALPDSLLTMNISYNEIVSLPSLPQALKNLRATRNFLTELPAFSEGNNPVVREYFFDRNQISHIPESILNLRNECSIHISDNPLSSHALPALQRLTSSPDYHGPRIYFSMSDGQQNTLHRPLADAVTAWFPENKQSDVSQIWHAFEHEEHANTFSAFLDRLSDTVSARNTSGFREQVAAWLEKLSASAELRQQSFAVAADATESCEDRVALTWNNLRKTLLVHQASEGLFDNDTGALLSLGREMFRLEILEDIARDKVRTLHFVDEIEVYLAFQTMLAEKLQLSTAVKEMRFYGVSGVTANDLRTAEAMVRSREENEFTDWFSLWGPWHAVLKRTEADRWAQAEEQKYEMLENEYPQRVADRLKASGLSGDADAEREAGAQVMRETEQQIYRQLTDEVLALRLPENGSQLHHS

B1: luciferase::GBP1 (protein, UniProt P32455 1-592)
chain: MASEIHMTGPMCLIENTNGRLMANPEALKILSAITQPMVVVAIVGLYRTGKSYLMNKLAGKKKGFSLGSTVQSHTKGIWMWCVPHPKKPGHILVLLDTEGLGDVEKGDNQNDSWIFALAVLLSSTFVYNSIGTINQQAMDQLYYVTELTHRIRSKSSPDENENEVEDSADFVSFFPDFVWTLRDFSLDLEADGQPLTPDEYLTYSLKLKKGTSQKDETFNLPRLCIRKFFPKKKCFVFDRPVHRRKLAQLEKLQDEELDPEFVQQVADFCSYIFSNSKTKTLSGGIQVNGPRLESLVLTYVNAISSGDLPCMENAVLALAQIENSAAVQKAIAHYEQQMGQKVQLPTETLQELLDLHRDSEREAIEVFIRSSFKDVDHLFQKELAAQLEKKRDDFCKQNQEASSDRCSALLQVIFSPLEEEVKAGIYSKPGGYRLFVQKLQDLKKKYYEEPRKGIQAEEILQTYLKSKESMTDAILQTDQTLTEKEKEIEVERVKAESAQASAKMLQEMQRKNEQMMEQKERSYQEHLKQLTEKMENDRVQLLKEQERTLALKLQEQEQLLKEGFQKESRIMKNEIQDLQTKMRRRKACTIS
B2: luciferase::GBP2 (protein, UniProt P32456 1-591)
chain: MAPEINLPGPMSLIDNTKGQLVVNPEALKILSAITQPVVVVAIVGLYRTGKSYLMNKLAGKKNGFSLGSTVKSHTKGIWMWCVPHPKKPEHTLVLLDTEGLGDIEKGDNENDSWIFALAILLSSTFVYNSMGTINQQAMDQLHYVTELTDRIKANSSPGNNSVDDSADFVSFFPAFVWTLRDFTLELEVDGEPITADDYLELSLKLRKGTDKKSKSFNDPRLCIRKFFPKRKCFVFDWPAPKKYLAHLEQLKEEELNPDFIEQVAEFCSYILSHSNVKTLSGGIPVNGPRLESLVLTYVNAISSGDLPCMENAVLALAQIENSAAVEKAIAHYEQQMGQKVQLPTETLQELLDLHRDSEREAIEVFMKNSFKDVDQMFQRKLGAQLEARRDDFCKQNSKASSDCCMALLQDIFGPLEEDVKQGTFSKPGGYRLFTQKLQELKNKYYQVPRKGIQAKEVLKKYLESKEDVADALLQTDQSLSEKEKAIEVERIKAESAEAAKKMLEEIQKKNEEMMEQKEKSYQEHVKQLTEKMERDRAQLMAEQEKTLALKLQEQERLLKEGFENESKRLQKDIWDIQMRSKSLEPICNIL
B3: luciferase::GBP4 (protein, UniProt Q96PP9 1-640)
chain: MGERTLHAAVPTPGYPESESIMMAPICLVENQEEQLTVNSKALEILDKISQPVVVVAIVGLYRTGKSYLMNRLAGKRNGFPLGSTVQSETKGIWMWCVPHLSKPNHTLVLLDTEGLGDVEKSNPKNDSWIFALAVLLSSSFVYNSVSTINHQALEQLHYVTELAELIRAKSCPRPDEAEDSSEFASFFPDFIWTVRDFTLELKLDGNPITEDEYLENALKLIPGKNPKIQNSNMPRECIRHFFRKRKCFVFDRPTNDKQYLNHMDEVPEENLERHFLMQSDNFCSYIFTHAKTKTLREGIIVTGKRLGTLVVTYVDAINSGAVPCLENAVTALAQLENPAAVQRAADHYSQQMAQQLRLPTDTLQELLDVHAACEREAIAVFMEHSFKDENHEFQKKLVDTIEKKKGDFVLQNEEASAKYCQAELKRLSEHLTESILRGIFSVPGGHNLYLEEKKQVEWDYKLVPRKGVKANEVLQNFLQSQVVVEESILQSDKALTAGEKAIAAERAMKEAAEKEQELLREKQKEQQQMMEAQERSFQEYMAQMEKKLEEERENLLREHERLLKHKLKVQEEMLKEEFQKKSEQLNKEINQLKEKIESTKNEQLRLLKILDMASNIMIVTLPGASKLLGVGTKYLGSRI
B4: luciferase::GBP3 (protein, UniProt Q9H0R5 1-595)
chain: MAPEIHMTGPMCLIENTNGELVANPEALKILSAITQPVVVVAIVGLYRTGKSYLMNKLAGKNKGFSLGSTVKSHTKGIWMWCVPHPKKPEHTLVLLDTEGLGDVKKGDNQNDSWIFTLAVLLSSTLVYNSMGTINQQAMDQLYYVTELTHRIRSKSSPDENENEDSADFVSFFPDFVWTLRDFSLDLEADGQPLTPDEYLEYSLKLTQGTSQKDKNFNLPRLCIRKFFPKKKCFVFDLPIHRRKLAQLEKLQDEELDPEFVQQVADFCSYIFSNSKTKTLSGGIKVNGPRLESLVLTYINAISRGDLPCMENAVLALAQIENSAAVQKAIAHYDQQMGQKVQLPAETLQELLDLHRVSEREATEVYMKNSFKDVDHLFQKKLAAQLDKKRDDFCKQNQEASSDRCSALLQVIFSPLEEEVKAGIYSKPGGYCLFIQKLQDLEKKYYEEPRKGIQAEEILQTYLKSKESVTDAILQTDQILTEKEKEIEVECVKAESAQASAKMVEEMQIKYQQMMEEKEKSYQEHVKQLTEKMERERAQLLEEQEKTLTSKLQEQARVLKERCQGESTQLQNEIQKLQKTLKKKTKRYMSHKLKI

target: GST::ipaH9.8 (HIS::GST::ipaH9.8 from pETM30) (Shigella flexneri) (UniProt Q8VSC3); experiment: pull-down; LUMIER binding assay: GST::ipaH9.8 immobilised on beads, incubated 2 h with luciferase-tagged GBP from 293ET cells in LUMIER lysis buffer (150 mM NaCl, 0.1% Triton X-100, 20 mM Tris-HCl pH 7.4, 5% glycerol, 5 mM EDTA, proteinase inhibitors); eluted with glutathione; luciferase activity over GST control; only the target purified

Binder	binding
B1	binds
B2	binds
B3	binds
B4	no binding
